{"source": "PubChem BioAssay AID1224827 (NIAID, 2016)", "assay": "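Identify regulators of the macrophage TNF-alpha response to bacterial LPS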 (follow-up of hits)", "system": "RAW264.7 G9 mouse macrophage reporter clone", "reagents": "single siRNA against mouse genes, 100 nM siRNA", "time to read-out": "siRNA for 2 days, then LPS about 16 h", "challenge": "bacterial lipopolysaccharide (LPS), 10 ng/ml, cells fixed after overnight (about 16 h) stimulation", "measured": "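Imaged nuclear TNF reporter intensity, background removed, scaled per plate and to non-targeting control wells, as z-scores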", "reading the numbers": "TNF reporter z-score, mean: higher = stronger Tnf promoter reporter signal", "active means": "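An siRNA is called active when its mean z-score over replicates is at least +2 or at most -2; control wells get no call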", "note": "Here is an unselected part of about 3,800 reagents. About 2,200 of them (57%) count as active. 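Active means a strong reporter change in either direction; calls are per siRNA, not per gene; qiagen siRNAs gave weaker effects.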 Entries without a mark were called inactive. The numbers tell different reagents against one gene apart. Not all columns of the deposit are shown."}
{"Gene": "Vmn1r6 (GeneID 171193)", "siRNA no.": 1, "TNF reporter z-score, mean": -0.828}
{"Gene": "Vmn1r6 (GeneID 171193)", "siRNA no.": 2, "TNF reporter z-score, mean": -0.714}
{"Gene": "Vmn1r6 (GeneID 171193)", "siRNA no.": 3, "TNF reporter z-score, mean": "-5.07 (active)"}
{"Gene": "Hexb (GeneID 15212)", "siRNA no.": 1, "TNF reporter z-score, mean": "5.36 (active)"}
{"Gene": "Hexb (GeneID 15212)", "siRNA no.": 2, "TNF reporter z-score, mean": 0.116}
{"Gene": "Hexb (GeneID 15212)", "siRNA no.": 3, "TNF reporter z-score, mean": "-2.69 (active)"}
{"Gene": "Hexb (GeneID 15212)", "siRNA no.": 4, "TNF reporter z-score, mean": "2.24 (active)"}
{"Gene": "Hexb (GeneID 15212)", "siRNA no.": 5, "TNF reporter z-score, mean": 0.877}
{"Gene": "Hexb (GeneID 15212)", "siRNA no.": 6, "TNF reporter z-score, mean": 0.739}
{"Gene": "Cadm1 (GeneID 54725)", "siRNA no.": 1, "TNF reporter z-score, mean": -0.0358}
{"Gene": "Cadm1 (GeneID 54725)", "siRNA no.": 2, "TNF reporter z-score, mean": "-2.87 (active)"}
{"Gene": "Cadm1 (GeneID 54725)", "siRNA no.": 3, "TNF reporter z-score, mean": "-5.95 (active)"}
{"Gene": "Cadm1 (GeneID 54725)", "siRNA no.": 4, "TNF reporter z-score, mean": "3.36 (active)"}
{"Gene": "Cadm1 (GeneID 54725)", "siRNA no.": 5, "TNF reporter z-score, mean": "3.4 (active)"}
{"Gene": "Cadm1 (GeneID 54725)", "siRNA no.": 6, "TNF reporter z-score, mean": 0.639}
